The record followed here is patent publication US20260132217A1 (UNIVERSITE D AIX MARSEILLE, published 2026).

No constants are given. Whether binding was seen depends on the method and setting. Some entries that bind do so weakly or less than the wild type.

The target of the assay is T1, soluble CD146 (sCD146), recombinant human sCD146 (human) (UniProt P43121).
T1 sequence (FITC label in the cell-binding experiments (sCD146-FITC); site not stated, looked up): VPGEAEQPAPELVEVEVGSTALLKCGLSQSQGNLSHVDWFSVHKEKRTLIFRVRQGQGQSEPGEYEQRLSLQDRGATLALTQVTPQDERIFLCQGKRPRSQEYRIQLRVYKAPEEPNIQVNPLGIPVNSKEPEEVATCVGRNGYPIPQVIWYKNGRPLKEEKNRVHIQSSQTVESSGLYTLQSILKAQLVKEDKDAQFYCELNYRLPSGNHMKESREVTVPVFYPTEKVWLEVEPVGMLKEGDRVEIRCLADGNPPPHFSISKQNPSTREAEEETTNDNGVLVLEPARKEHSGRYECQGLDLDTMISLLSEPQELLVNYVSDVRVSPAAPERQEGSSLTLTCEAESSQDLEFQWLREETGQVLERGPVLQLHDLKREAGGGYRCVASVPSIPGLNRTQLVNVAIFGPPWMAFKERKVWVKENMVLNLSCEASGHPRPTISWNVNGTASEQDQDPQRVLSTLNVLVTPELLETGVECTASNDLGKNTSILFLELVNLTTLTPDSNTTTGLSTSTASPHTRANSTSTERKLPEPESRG
The experiment in a line: in-house ELISA, inhibition of the sCD146-integrin αvβ3 interaction.

B1: mucizumab, humanized IgG1 monoclonal anti-sCD146 antibody (antibody, V domains shown)
VH: QVKLVESGGGVVQPGRSLTLSCAASGFTFSDYGMHWIRQAPGKGLEWIAMIYYDSSKMYYADTVKGRFTISRDNSKNTLYLQMNSLRAEDTAVYYCAAFQFDYWGQGTMVTVSS
VL: EIVLTQSPDFQSVTPKEKVTITCRASQGISTSIYWYQQKPDQSPKLLIKFASQSISGVPSRFSGSGSGTDFTLTINRVEAEDAATYYCQQSYNLPYTFGAGTKLEIKR
In the case of B1, the binding entry is “binds”.
